According to patent publication US6359138B1, “4-hydroxy-piperidine derivatives” (Hoffmann-La Roche Inc., priority 1996, dated 2002):
At least one compound was matched to its structure with a doubt left.

Molecular target: 3H-Prazosine binding (rat brain membranes)
Test: 3H-Prazosine binding
Conditions: 0.2 nM 3H-Prazosine, 30 minutes at room temperature
Method: Male Füllinsdorf albino rats weighing between 150-200 g were used. Membranes were prepared by homogenization of the whole brain minus cerebellum and medulla oblongata with a Plytron (10.000 rpm, 30 seconds), in 25 volumes of a cold Tris-HCl 50 mM, EDTA 10 mM, pH 7.1 buffer. The homogenate was centrifuged at 48.000 g for 10 minutes at 4° C. The pellet was resuspended using the Polytron in the same volume of buffer and the homogenate was incubated at 37° C. for 10 minutes. After centrifugation the pellet was homogenized in the same buffer and frozen at −80° C. for at least 16 hours but not more than 10 days. For the binding assay the homogenate was thawed at 37° C., centrifuged and the pellet was washed three times as above in a Tris-HCl 5 mM, pH 7.4 cold buffer. The final pellet was resuspended in the same buffer and used at a final concentration of 200 μg of protein/ml.
3H-Prazosine binding experiments were performed using a Tris-HCl 50 mM, pH 7.4 buffer. For displacement experiments 0.2 nM of 3H-Prazosine were used and non specific binding was measured using 100 μM of Chlorpromazine. […] The radioactivity on the filter was counted on a Packard Top-count microplate scintillation counter after addition of […] of microscint 40 (Canberra Packard S. A., Zürich, Switzerland). The effects of compounds were measured using a minimum of 8 concentrations and repeated at least once. […]

Q: `Cc1ccc(CC2(O)CCN(CC3=Cc4ccc(O)cc4CC3)CC2)cc1` [Example 1, 1-(6-Hydroxy-3,4-dihydro-naphthalene-2-ylmethyl)-4-(4-methyl-benzyl)-piperidine-4-ol] was tested. Which IC50 did it give?
A: 3000 nM
